Part of at least one peptide drawing is inferred or uncertain, most often the ends. Numbered stars: 1 amine (or outer) side, 2 acyl side, 3 side chain; on linkers, the order of the positions; unused ones are H or OH. Square brackets hold non-standard residues; d marks the D form. Peptide text beside a SMILES is read from it. Glyψ(CH2S)Leu = CC(C)C[C@H](SCCN[*:1])C(=O)[*:2]
System: Collagenase
Assay: Collagenase assay with the natural-sequence octapeptide as substrate
Type: biochemical

Q: Which Collagenase activity does the source give for `CC(=O)N1CCC[C@H]1C(=O)N[C@@H](CCC(N)=O)C(=O)NCCS[C@@H](CC(C)C)C(=O)N[C@@H](C)C(=O)NCC(=O)N[C@@H](CC(C)C)C(=O)N[C@@H](CCCNC(=N)N)C(N)=O` [Ac-Pro-Gln-Gly .PSI. Leu-Ala-Gly-Leu-Arg-NH2] (Ac-PQ[Glyψ(CH2S)Leu]AGLR-NH2) here?
A: inhibited

Reference: patent publication US4631270A, “Therapeutically useful pseudopeptides, compositions containing the same and methods of preparation and use” (priority 1985, dated 1986)
